No constants are given. Whether binding was seen depends on the method and setting. A result given as binding can be weak or reduced; the word gives no strength.

In this assay the target is hyperphosphorylated tau (tau-p; University of Victoria). The assay can be described thus: SPR (Biacore T200), sdAb injected over immobilized hyperphosphorylated tau, 20-6000 nM per the legend.

B1: Tau15 (VHH, not shown: large carriers)
VHH: QVKLEESGGGLVQPGGSLRLSCAASGFTFSNFAMTWVRQSPGKGLEWVSAIDNDGGRTSYSDSVKGRFTISRDNAKNTLYLQMNSLKPEDTAMYYCAAMNLATRKWELWGQGTQVTVSS
Turning to B1, the binding result was “binds”.

B2: Tau81 (VHH, not shown: large carriers)
VHH: QVQLVESGGGLVQPGGSLKLSCAASGFTGDHYAMSWVRQAPGKGLEWVSTIYSYSPNTYYVDSVKDRFTISLDNAKNTLYLQMNSLKPEDTAVYYCAADLEVAEYYAYWGQGTQVTVSS
With B2, the binding result is given as “binds”.

The values above are taken from patent US20170296680A1.
